This is an account of results in patent US20100183640A1.

By UniProt entry, the sequences of proteins in these tests, tags left out. Where a name states a change or a piece, a line headed by the entry shows the natural chain unless it says otherwise.
UniProt P02751: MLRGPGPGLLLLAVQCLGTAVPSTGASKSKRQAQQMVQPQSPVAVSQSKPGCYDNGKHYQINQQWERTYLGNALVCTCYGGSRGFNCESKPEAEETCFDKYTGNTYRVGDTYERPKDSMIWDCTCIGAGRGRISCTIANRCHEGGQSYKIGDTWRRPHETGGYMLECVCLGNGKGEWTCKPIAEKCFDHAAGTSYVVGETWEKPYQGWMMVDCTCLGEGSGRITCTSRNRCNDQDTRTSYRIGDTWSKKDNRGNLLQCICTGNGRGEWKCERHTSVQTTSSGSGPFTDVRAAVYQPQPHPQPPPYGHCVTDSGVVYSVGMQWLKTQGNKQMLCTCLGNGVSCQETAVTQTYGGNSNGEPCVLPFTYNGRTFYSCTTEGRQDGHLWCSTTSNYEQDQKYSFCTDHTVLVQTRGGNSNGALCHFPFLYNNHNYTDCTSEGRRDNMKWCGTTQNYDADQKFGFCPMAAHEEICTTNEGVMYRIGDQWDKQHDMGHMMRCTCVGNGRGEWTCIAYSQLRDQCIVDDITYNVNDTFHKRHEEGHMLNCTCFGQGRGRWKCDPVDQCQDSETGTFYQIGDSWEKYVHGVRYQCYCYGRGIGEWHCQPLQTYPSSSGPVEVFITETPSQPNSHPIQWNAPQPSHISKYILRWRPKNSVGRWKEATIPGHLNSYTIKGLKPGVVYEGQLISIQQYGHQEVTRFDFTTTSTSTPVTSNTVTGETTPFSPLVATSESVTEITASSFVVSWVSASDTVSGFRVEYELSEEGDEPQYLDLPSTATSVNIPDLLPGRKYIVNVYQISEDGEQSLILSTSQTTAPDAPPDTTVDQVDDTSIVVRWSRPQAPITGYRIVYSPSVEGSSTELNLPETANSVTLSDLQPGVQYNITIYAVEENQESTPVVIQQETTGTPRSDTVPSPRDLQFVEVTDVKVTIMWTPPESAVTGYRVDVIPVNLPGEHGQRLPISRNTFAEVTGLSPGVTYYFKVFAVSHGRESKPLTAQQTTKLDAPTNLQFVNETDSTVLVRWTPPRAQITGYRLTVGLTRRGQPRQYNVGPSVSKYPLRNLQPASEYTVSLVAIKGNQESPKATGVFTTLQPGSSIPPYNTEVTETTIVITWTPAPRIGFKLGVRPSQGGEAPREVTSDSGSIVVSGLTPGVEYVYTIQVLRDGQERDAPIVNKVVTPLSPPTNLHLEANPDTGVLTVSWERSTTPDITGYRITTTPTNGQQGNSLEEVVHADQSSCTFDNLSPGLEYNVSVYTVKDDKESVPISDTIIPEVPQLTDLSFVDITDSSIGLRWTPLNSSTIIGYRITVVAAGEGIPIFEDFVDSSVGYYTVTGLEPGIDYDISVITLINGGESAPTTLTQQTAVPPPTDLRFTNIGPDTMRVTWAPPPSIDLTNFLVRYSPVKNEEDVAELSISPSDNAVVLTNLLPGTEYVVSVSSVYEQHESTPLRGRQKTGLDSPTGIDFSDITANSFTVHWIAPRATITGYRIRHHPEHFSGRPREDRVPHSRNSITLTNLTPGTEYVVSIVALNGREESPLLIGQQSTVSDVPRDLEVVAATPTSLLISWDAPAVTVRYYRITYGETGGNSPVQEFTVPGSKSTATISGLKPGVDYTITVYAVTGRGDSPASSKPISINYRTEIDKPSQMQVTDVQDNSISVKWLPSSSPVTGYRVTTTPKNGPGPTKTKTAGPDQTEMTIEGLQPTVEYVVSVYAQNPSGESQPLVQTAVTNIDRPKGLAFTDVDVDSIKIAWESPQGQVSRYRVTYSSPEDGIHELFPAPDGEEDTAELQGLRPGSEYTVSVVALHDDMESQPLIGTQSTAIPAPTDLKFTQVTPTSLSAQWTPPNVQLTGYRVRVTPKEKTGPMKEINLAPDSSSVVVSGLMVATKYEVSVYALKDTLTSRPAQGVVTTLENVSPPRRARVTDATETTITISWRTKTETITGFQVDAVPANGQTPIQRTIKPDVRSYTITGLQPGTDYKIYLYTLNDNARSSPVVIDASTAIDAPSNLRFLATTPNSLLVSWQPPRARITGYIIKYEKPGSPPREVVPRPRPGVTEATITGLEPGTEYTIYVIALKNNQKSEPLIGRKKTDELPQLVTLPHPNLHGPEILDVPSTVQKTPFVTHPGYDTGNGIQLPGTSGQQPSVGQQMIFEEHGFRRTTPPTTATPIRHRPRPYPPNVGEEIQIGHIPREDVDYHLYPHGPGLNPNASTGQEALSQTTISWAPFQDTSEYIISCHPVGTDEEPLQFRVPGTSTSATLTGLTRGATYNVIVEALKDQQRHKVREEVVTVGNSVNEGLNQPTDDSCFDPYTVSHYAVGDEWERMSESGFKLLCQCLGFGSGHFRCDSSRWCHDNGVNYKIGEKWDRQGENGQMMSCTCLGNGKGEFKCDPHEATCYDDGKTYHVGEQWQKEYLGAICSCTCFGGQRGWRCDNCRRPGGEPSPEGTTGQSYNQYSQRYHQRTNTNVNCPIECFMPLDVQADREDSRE

These are yes or no findings as the source states them, for the method shown. Binding can be weak; no strength is given.

Test [1] addresses purified human fibronectin (hFn), from human plasma (human) (UniProt P02751). As to the kind of experiment: ELISA, coated fibronectin.
Test [2] shares this target. Description: ELISA, coated fibronectin species.

B1: recombinant human uteroglobin (ligand)
chain: EICPSFQRVIETLLMDTPSSYEAAMELFSPDQDMREAGAQLKKLVDTLPQKPRESIIKLMEKIAQSSLCN
Consider B1, for which the binding result in test [1] and in test [2] was “binds” throughout.
